Results are given in words; binding and its absence hold for the method and conditions named.
Molecular target: UGDH A82T (human) (UniProt O60701)
Assay: SEC; analytical gel filtration of each apoprotein alone; 1x PBS with 1 mM DTT, 0.5 mL/min, Superdex gel filtration column, elution followed by A280; peaks compared with known hexamer, dimer and monomer elution times; both purified

B1: UGDH A82T (enzyme, UniProt O60701 1-494)
chain: MFEIKKICCIGAGYVGGPTCSVIAHMCPEIRVTVVDVNESRINAWNSPTLPIYEPGLKEVVESCRGKNLFFSTNIDDAIKETDLVFISVNTPTKTYGMGKGRAADLKYIEACARRIVQNSNGYKIVTEKSTVPVRAAESIRRIFDANTKPNLNLQVLSNPEFLAEGTAIKDLKNPDRVLIGGDETPEGQRAVQALCAVYEHWVPREKILTTNTWSSELSKLAANAFLAQRISSINSISALCEATGADVEEVATAIGMDQRIGNKFLKASVGFGGSCFQKDVLNLVYLCEALNLPEVARYWQQVIDMNDYQRRRFASRIIDSLFNTVTDKKIAILGFAFKKDTGDTRESSSIYISKYLMDEGAHLHIYDPKVPREQIVVDLSHPGVSEDDQVSRLVTISKDPYEACDGAHAVVICTEWDMFKELDYERIHKKMLKPAFIFDGRRVLDGLHNELQTIGFQIETIGKKVSSKRIPYAPSGEIPKFSLQDPPNKKPKV
For B1, which binding is on record?
Its binding is “no binding”.
